From publication PMC4595830
No constants are given. Whether binding was seen depends on the method and setting. Binding seen in cells or lysates may run through a third protein. Some results given as binding are weak or reduced against the parent protein; the word gives no strength.

Protein sequences, listed by entry. Tags and fused reporters are not part of them.
UniProt Q91YH6: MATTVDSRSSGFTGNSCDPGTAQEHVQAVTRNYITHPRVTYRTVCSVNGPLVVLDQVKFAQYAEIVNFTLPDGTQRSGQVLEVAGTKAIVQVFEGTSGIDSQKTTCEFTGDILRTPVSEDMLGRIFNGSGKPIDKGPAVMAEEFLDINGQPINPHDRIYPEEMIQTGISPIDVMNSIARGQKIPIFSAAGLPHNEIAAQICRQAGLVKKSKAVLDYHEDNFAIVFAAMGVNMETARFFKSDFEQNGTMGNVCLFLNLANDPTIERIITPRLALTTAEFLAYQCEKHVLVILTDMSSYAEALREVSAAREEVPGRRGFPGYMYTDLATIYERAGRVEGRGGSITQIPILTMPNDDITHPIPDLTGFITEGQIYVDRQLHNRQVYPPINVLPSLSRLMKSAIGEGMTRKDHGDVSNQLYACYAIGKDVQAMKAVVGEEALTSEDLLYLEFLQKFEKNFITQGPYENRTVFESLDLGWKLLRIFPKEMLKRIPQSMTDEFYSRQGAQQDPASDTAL
UniProt P26040: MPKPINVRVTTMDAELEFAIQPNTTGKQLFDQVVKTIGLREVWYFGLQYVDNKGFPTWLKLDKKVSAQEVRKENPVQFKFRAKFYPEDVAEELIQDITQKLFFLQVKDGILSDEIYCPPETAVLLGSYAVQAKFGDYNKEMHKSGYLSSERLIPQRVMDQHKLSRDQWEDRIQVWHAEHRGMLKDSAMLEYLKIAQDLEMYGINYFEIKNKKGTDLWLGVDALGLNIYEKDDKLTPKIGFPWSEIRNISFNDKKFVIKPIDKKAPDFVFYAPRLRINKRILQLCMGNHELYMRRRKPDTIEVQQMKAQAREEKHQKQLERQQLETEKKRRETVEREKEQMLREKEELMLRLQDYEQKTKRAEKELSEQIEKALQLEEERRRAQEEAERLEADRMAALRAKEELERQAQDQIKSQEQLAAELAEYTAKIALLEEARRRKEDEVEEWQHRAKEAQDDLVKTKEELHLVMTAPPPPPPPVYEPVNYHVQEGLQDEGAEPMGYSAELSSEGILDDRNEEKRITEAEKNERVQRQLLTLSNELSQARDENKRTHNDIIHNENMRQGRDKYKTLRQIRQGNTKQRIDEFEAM

Molecular target: ATPase, H+ transporting, lysosomal V1 subunit B1 (mouse (endogenous in kidney)) (UniProt Q91YH6)
Assay: co-IP; proteins immunoprecipitated by anti-B1 antibodies from whole mouse kidney lysates, detected by Western blotting with antibodies against the indicated proteins

With ezrin (from UniProt P26040 1-586) the binding was “binds”.
